Measurements taken from publication doi:10.1101/2022.02.03.479028.
No constants are given. Whether binding was seen depends on the method and setting. Binding seen in cells or lysates may run through a third protein. These calls come from enrichment with a bait or labelling near it, and not all partners need be listed. Tags and fused reporters may be left off the sequences shown. Values belong to the molecule of their own block, whether it stands above or below them.

Amino acid sequences for entries named in this document (tags omitted).
UniProt Q6P1M0: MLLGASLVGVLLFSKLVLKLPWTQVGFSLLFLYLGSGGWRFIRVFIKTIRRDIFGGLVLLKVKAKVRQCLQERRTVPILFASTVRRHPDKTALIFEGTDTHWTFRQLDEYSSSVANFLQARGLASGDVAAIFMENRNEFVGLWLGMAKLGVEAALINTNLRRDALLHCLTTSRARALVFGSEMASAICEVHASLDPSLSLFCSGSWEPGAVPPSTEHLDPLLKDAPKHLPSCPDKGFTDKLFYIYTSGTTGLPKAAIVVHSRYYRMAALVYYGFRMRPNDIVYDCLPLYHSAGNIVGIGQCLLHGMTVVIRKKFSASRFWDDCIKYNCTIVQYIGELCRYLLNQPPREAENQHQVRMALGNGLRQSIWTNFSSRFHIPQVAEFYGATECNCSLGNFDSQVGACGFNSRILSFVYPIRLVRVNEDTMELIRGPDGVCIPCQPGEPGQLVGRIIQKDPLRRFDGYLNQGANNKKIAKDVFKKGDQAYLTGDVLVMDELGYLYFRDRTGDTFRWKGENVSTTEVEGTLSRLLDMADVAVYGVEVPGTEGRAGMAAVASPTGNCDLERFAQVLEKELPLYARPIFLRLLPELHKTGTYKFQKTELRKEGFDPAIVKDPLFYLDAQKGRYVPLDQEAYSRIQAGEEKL

Target: T1, full-length mEmerald tagged Plin5 (perilipin 5) (UniProt Q8BVZ1)
T1 sequence: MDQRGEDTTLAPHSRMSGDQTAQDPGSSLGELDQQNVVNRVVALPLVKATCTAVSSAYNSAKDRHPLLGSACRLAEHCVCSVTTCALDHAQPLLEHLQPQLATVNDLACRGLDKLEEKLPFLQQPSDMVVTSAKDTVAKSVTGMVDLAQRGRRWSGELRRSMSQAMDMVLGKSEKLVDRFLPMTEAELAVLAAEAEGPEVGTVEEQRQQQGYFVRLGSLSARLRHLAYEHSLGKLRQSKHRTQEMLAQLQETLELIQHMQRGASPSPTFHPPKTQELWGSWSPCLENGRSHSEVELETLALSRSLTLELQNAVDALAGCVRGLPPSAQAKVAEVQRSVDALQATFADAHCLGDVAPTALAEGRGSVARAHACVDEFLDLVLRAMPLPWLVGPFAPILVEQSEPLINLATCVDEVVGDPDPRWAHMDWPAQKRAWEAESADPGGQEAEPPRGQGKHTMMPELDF
Experiment: affinity purification with mass spectrometry

binding: binds
Molecule: Fatp4 (ACSVL4), acyl-CoA synthetase (from UniProt Q6P1M0 1-643) (enzyme)

binding: binds
B1: Acot9 (enzyme, UniProt Q9Y305 22-439)
chain: LTQGPQNPKKQGIFHIHEVRDKLREIVGASTNWRDHVKAMEERKLLHSFLAKSQDGLPPRRMKDSYIEVLLPLGSEPELREKYLTVQNTVRFGRILEDLDSLGVLICYMHNKIHSAKMSPLSIVTALVDKIDMCKKSLSPEQDIKFSGHVSWVGKTSMEVKMQMFQLHGDEFCPVLDATFVMVARDSENKGPAFVNPLIPESPEEEELFRQGELNKGRRIAFSSTSLLKMAPSAEERTTIHEMFLSTLDPKTISFRSRVLPSNAVWMENSKLKSLEICHPQERNIFNRIFGGFLMRKAYELAWATACSFGGSRPFVVAVDDIMFQKPVEVGSLLFLSSQVCFTQNNYIQVRVHSEVASLQEKQHTTTNVFHFTFMSEKEVPLVFPKTYGESMLYLDGQRHFNSMSGPATLRKDYLVEP
